# According to PubChem BioAssay AID493014 (National Center for Advancing Translational Sciences (NCATS), 2011):
# This is one part of the list. The main result of the screen is listed elsewhere. These columns were measured beside it and carry no call. The list favours compounds with an active or inconclusive main result. Potencies come from curve fits of mixed quality, noted in brackets.
# Test: qHTS Assay to Find Inhibitors of Chronic Active B-Cell Receptor Signaling
# Details: ABC-DLBCL IkBa-CBG/CBR reporter, luminescence ratio (green luciferase fused to IkBa over red control in TMD8 lymphoma cells), 4 h
# Procedure, shortened: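 Compounds up to 46 uM were incubated four hours with TMD8 cells whose green CBG68 luciferase is fused to IkappaBalpha; red CBR luminescence normalised the signal, and concentration-effect curves were fitted to fusion, red and ratio data.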
# [1] = measured here: CBR red luminescence, cell number
# [2] = measured here: IkBa-CBG green luminescence
SMILES,AC50 [1],AC50 [2]
OCCNc1cc(Cl)ncn1,"6.31 µM [rising, single point]",
CN(C(=O)CSc1nc2ccccc2o1)C1CCCCC1,"29.1 µM [rising, single point]",
N/C(=N\OC(=O)CCC1CCCCC1)c1cccnc1,"2.51 µM [rising, partial curve, poor fit]",
O=C(c1ccc(C#CC2(O)CCCCC2)cc1)N1CCN(Cc2ccccc2)CC1,"28.2 µM [falling, partial curve, poor fit]",
Cc1ccccc1NC(=O)Nc1cnccn1,"22.4 µM [falling, single point]",
NC(=O)C1CCN(C(=O)c2ccc(OCC(=O)Nc3cccc(C(F)(F)F)c3)cc2)CC1,"6.51 µM [falling, single point]",
CCN1C(=NCc2cc(OC)c(OC)c(OC)c2)N[C@@H](c2cccc(C(F)(F)F)c2)C(C(=O)OC)=C1C,"35.5 µM [falling, single point]",
Cc1ccc(C)c(C(=O)OCC(=O)Nc2cccc(S(=O)(=O)NC3=NCCCCC3)c2)c1,"35.5 µM [falling, single point]",
C=CCC[C@@H](Cc1ccc(F)cc1)C(=O)OC[C@H](Cc1c[nH]c2ccccc12)NC(=O)[C@@H](CC=C)CC(=O)N(CCO)Cc1ccccc1,"14.6 µM [falling, partial curve]",
COc1cc(CC(=O)OCC(=O)N2CCN(C(=O)c3ccco3)CC2)cc(OC)c1OC,"25.9 µM [rising, single point]",
Cc1ccc(/C=C/C(=O)c2cc(Br)ccc2OC(=O)c2ccco2)cc1,"6.51 µM [rising, single point]","6.51 µM [falling, single point]"
OCCCNc1nc(-c2ccccc2)c2cc(Br)ccc2n1,"22.4 µM [falling, single point]",
CSc1nsc2nc(=O)c(/C=C3\C(C)=Nc4ccc(C)cc43)c(N)n12,"8.91 µM [falling, partial curve, poor fit]","7.08 µM [rising, partial curve, poor fit]"
COc1ccc(S(=O)(=O)NC(N)=NCCc2ccc(OC)c(OC)c2)cc1,"0.708 µM [rising, full curve, poor fit]",
COC(=O)CCCC(=O)NC1CCCc2c1cnn2-c1ccc(F)cc1F (centres undefined),"0.1 µM [rising, full curve, poor fit]",
N#Cc1c(-c2ccc(Cl)cc2)ccnc1N1CCOCC1,"3.55 µM [rising, partial curve, poor fit]",
CCCOc1cccc(C(=O)Nc2cccc(NC(=O)c3ccco3)c2)c1,"2 µM [falling, partial curve]",
Cc1ccc(NCc2nc3ccccc3n2CCOc2ccccc2)cc1,"1.84 µM [falling, partial curve]",
Clc1ccc(-c2nnc(NC3=NCCCCC3)o2)cc1,"1.58 µM [falling, full curve]",
C=CCN1C(=O)C2(/C(=C(\O)c3ccc4c(c3)OCCO4)C(=O)C(=O)N2CCCOC)c2ccccc21 (centres undefined),"5.8 µM [rising, full curve]",
O=C(NN=C1CCCC1)c1[nH]c2ccc(Cl)cc2c1-c1ccccc1,"3.98 µM [rising, full curve, poor fit]","3.55 µM [falling, full curve, poor fit]"

# Reformatted with bars between the fields: part of the list above
SMILES | AC50 [1] | AC50 [2]
Cc1ccccc1NC(=O)Nc1cnccn1 | 22.4 µM [falling, single point] | 
NC(=O)C1CCN(C(=O)c2ccc(OCC(=O)Nc3cccc(C(F)(F)F)c3)cc2)CC1 | 6.51 µM [falling, single point] | 
CCN1C(=NCc2cc(OC)c(OC)c(OC)c2)N[C@@H](c2cccc(C(F)(F)F)c2)C(C(=O)OC)=C1C | 35.5 µM [falling, single point] | 
Cc1ccc(C)c(C(=O)OCC(=O)Nc2cccc(S(=O)(=O)NC3=NCCCCC3)c2)c1 | 35.5 µM [falling, single point] | 
C=CCC[C@@H](Cc1ccc(F)cc1)C(=O)OC[C@H](Cc1c[nH]c2ccccc12)NC(=O)[C@@H](CC=C)CC(=O)N(CCO)Cc1ccccc1 | 14.6 µM [falling, partial curve] | 
COc1cc(CC(=O)OCC(=O)N2CCN(C(=O)c3ccco3)CC2)cc(OC)c1OC | 25.9 µM [rising, single point] | 
Cc1ccc(/C=C/C(=O)c2cc(Br)ccc2OC(=O)c2ccco2)cc1 | 6.51 µM [rising, single point] | 6.51 µM [falling, single point]
OCCCNc1nc(-c2ccccc2)c2cc(Br)ccc2n1 | 22.4 µM [falling, single point] | 
CSc1nsc2nc(=O)c(/C=C3\C(C)=Nc4ccc(C)cc43)c(N)n12 | 8.91 µM [falling, partial curve, poor fit] | 7.08 µM [rising, partial curve, poor fit]
COc1ccc(S(=O)(=O)NC(N)=NCCc2ccc(OC)c(OC)c2)cc1 | 0.708 µM [rising, full curve, poor fit] | 
COC(=O)CCCC(=O)NC1CCCc2c1cnn2-c1ccc(F)cc1F (centres undefined) | 0.1 µM [rising, full curve, poor fit] | 
N#Cc1c(-c2ccc(Cl)cc2)ccnc1N1CCOCC1 | 3.55 µM [rising, partial curve, poor fit] | 
CCCOc1cccc(C(=O)Nc2cccc(NC(=O)c3ccco3)c2)c1 | 2 µM [falling, partial curve] | 

# (continued)

SMILES,AC50 [1],AC50 [2]
COc1ccc2c(CC(=O)Nc3ccccc3OC)coc2c1,"0.398 µM [falling, full curve, poor fit]",
CCOc1cc(CNCC(C)C)c(Cl)cc1OCC(=O)Nc1ccccc1,"22.4 µM [falling, single point]",
CCC(C(=O)NCc1ccco1)N(C(=O)CNS(=O)(=O)c1ccccc1)c1ccccc1C (centres undefined),"35.5 µM [rising, single point]",
O=C(O)CNc1nc(-c2ccccc2)nc2c1oc1ccccc12,,"17.8 µM [rising, partial curve, poor fit]"
O=C(OCCCN=C1NS(=O)(=O)c2ccccc21)c1cccs1,"3.55 µM [rising, full curve, poor fit]",
Cc1cccc(-n2c(O)c(/C=N/NC(=O)c3ccccc3Cl)c3ccccc3c2=O)n1,"7.31 µM [falling, partial curve]",
Cc1cc(C)c(S(=O)(=O)NCC(c2cccs2)S(=O)(=O)c2ccccc2)c(C)c1 (centres undefined),"0.251 µM [falling, full curve, poor fit]",
COc1ccc2c(c1OC)C(=O)N(c1cccc(/C=C/C(=O)O)c1)C2,"1.41 µM [falling, full curve]",
O=C(CNC(=O)c1ccccc1)N/N=C/c1ccc([N+](=O)[O-])o1,"29.1 µM [falling, single point]",
ClC(Cl)(Cl)c1nc2ccccc2n2nncc12,"17.8 µM [falling, partial curve]","22.4 µM [falling, partial curve]"
CCCc1noc2c1/C(=N\O)CC(c1ccccc1)C2 (centres undefined),"20.6 µM [rising, partial curve, poor fit]",
CCOC(=O)c1sc2nc(-c3ccco3)c3c(c2c1N)CC(C)(C)OC3,"10 µM [falling, partial curve, poor fit]",
COCCN1C=C(C(=O)OC)C(c2ccc(Cl)cc2)C(C(=O)OC)=C1,"25.1 µM [falling, partial curve, poor fit]",
COc1cc2c(c(OC)c1OC)-c1ccc(OC)c(=O)cc1[C@@H](NC(C)=O)CC2,"3.55 µM [rising, partial curve, poor fit]","0.251 µM [falling, full curve, poor fit]"
O=C(Nc1ccc(N2CCCCC2)cc1)c1ccccc1,"7.31 µM [falling, partial curve]",
COc1ccc(OCC(N)=O)cc1,"17.8 µM [rising, partial curve, poor fit]",
COC(=O)c1ccc(SCc2cnc(Cl)s2)cc1,"35.5 µM [rising, single point]",
CCN(CC)S(=O)(=O)c1ccc(N2CCOCC2)c(NC(=O)c2cccc(C#N)c2)c1,"0.562 µM [rising, full curve, poor fit]",
Cc1nn(C)c(C)c1S(=O)(=O)N1CCCC(C(=O)N2CCN(c3ccc(Cl)cc3)CC2)C1 (centres undefined),"8.2 µM [falling, full curve, poor fit]",
COc1ccc(NC(=O)/C(C#N)=C/C=C/c2ccco2)cc1,"18.4 µM [rising, single point]",
CC1CCN(c2ccccc2NC(=S)NC(=O)c2cccs2)CC1,"11.2 µM [rising, partial curve, poor fit]",

SMILES,AC50 [1],AC50 [2]
CC(C)(C)NC(=S)N/N=C/c1cccnc1,"35.5 µM [rising, single point]","35.5 µM [falling, partial curve, poor fit]"
C/C(=N\OC(=O)NC(C)C)c1sc(-c2ccc(Cl)cc2)nc1C,"35.5 µM [falling, single point]","15.8 µM [rising, partial curve, poor fit]"
Cc1ccc(CC(=O)Nc2ccc(Cl)cn2)cc1,"0.562 µM [rising, full curve, poor fit]",
C[C@H](CO)N1C[C@H](C)[C@H](CN(C)Cc2ccccc2)Oc2c(NC(=O)Nc3ccc(F)cc3)cccc2C1=O,"8.2 µM [falling, partial curve, poor fit]",
O=C(CSc1ccccn1)NCc1ccc2c(c1)OCO2,"1.26 µM [rising, partial curve, poor fit]",
Cc1ccc(OCCSc2ncccn2)c(C)c1,"1 µM [rising, full curve, poor fit]",
O=[N+]([O-])c1cccc2ccc(N3CCOCC3)nc12,"35.5 µM [rising, single point]",
O=C(Nc1ccc([N+](=O)[O-])cc1)Nc1ccon1,"7.94 µM [rising, partial curve]","11.2 µM [falling, partial curve]"
COc1ccc(NC(=O)c2cc(-c3ccc(C)cc3O)n[nH]2)c(OC)c1,"11.2 µM [falling, partial curve]",
O=Nc1c(-c2cccc([N+](=O)[O-])c2)nc2ncccn12,"6.31 µM [falling, single point]",
COc1ccccc1/C=C/C=N\N1CCN(Cc2ccccc2Cl)CC1,"29.1 µM [falling, single point]",
c1nc2sc3c(c2c2nnnn12)CCCC3,"0.0651 µM [falling, full curve, poor fit]",
COc1ccc(OCCCSc2ncccn2)cc1,"14.6 µM [rising, partial curve, poor fit]",
CCCCCC(=O)N(O)C1CC(=O)N(c2ccccc2)C1=O (centres undefined),"7.08 µM [falling, partial curve, poor fit]",
O=C(Nc1cccc([N+](=O)[O-])c1)Nn1cnnc1,"35.5 µM [rising, single point]",
O=C(N/N=C/c1cccnc1)c1sc2ccccc2c1Cl,"12.6 µM [falling, partial curve]",
COc1ccccc1-c1oc2ccccc2c1C#CC1(O)CCCCC1,"6.51 µM [falling, single point]",
COc1cccc(NC(=O)CN2C(=O)NC(C)(c3ccc(C)cc3)C2=O)c1 (centres undefined),"0.631 µM [falling, full curve, poor fit]",
CC(C)(C)NC(=O)Cn1nc(C(F)(F)F)c2c1CCCC2,"7.94 µM [rising, partial curve]",
